One substance from paper PMC7156461 can be followed below.

By UniProt entry, the sequences of proteins in these tests, tags left out. Residues count along the entry.
UniProt P20152: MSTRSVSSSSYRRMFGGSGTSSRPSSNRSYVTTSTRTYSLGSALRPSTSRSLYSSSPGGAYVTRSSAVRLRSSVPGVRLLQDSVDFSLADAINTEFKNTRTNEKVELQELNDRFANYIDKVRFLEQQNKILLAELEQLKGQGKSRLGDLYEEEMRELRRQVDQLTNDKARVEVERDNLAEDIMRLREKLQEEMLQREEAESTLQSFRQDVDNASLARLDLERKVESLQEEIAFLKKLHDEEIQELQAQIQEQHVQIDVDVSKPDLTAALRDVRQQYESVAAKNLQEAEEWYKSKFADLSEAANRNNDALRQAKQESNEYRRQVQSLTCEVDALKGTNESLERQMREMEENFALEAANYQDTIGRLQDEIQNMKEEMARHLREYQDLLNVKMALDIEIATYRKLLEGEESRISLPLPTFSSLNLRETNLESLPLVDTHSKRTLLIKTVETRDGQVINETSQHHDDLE
UniProt Q888Y7, residues 1-90: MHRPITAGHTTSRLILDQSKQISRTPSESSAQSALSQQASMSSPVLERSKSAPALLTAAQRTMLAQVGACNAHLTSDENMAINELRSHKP

The experiment concerns the target vimentin (mouse (endogenous in B16F10)) (UniProt P20152). Kind of experiment: co-IP; whole-cell lysates of transfected B16F10 cells, IP with anti-Vimentin antibody on magnetic beads, immunoblot with anti-Myc, anti-14-3-3 or anti-p62; in one panel the cells were treated with R18 at 10 μM and 25 μM for 12 h.

No constants are given. Whether binding was seen depends on the method and setting. In cells and extracts the contact can be indirect.

In the case of “Myc-HopQ N90, containing only an N-terminal 90 amino-acid region (from UniProt Q888Y7 1-90) (domain or fragment)”, the binding result is listed as “no binding”.
